In publication PMC12765265:
No constants are given. Whether binding was seen depends on the method and setting. Binding seen in cells or lysates may run through a third protein.

The chains behind the UniProt entries cited, without tags or fusion partners.
UniProt O95071: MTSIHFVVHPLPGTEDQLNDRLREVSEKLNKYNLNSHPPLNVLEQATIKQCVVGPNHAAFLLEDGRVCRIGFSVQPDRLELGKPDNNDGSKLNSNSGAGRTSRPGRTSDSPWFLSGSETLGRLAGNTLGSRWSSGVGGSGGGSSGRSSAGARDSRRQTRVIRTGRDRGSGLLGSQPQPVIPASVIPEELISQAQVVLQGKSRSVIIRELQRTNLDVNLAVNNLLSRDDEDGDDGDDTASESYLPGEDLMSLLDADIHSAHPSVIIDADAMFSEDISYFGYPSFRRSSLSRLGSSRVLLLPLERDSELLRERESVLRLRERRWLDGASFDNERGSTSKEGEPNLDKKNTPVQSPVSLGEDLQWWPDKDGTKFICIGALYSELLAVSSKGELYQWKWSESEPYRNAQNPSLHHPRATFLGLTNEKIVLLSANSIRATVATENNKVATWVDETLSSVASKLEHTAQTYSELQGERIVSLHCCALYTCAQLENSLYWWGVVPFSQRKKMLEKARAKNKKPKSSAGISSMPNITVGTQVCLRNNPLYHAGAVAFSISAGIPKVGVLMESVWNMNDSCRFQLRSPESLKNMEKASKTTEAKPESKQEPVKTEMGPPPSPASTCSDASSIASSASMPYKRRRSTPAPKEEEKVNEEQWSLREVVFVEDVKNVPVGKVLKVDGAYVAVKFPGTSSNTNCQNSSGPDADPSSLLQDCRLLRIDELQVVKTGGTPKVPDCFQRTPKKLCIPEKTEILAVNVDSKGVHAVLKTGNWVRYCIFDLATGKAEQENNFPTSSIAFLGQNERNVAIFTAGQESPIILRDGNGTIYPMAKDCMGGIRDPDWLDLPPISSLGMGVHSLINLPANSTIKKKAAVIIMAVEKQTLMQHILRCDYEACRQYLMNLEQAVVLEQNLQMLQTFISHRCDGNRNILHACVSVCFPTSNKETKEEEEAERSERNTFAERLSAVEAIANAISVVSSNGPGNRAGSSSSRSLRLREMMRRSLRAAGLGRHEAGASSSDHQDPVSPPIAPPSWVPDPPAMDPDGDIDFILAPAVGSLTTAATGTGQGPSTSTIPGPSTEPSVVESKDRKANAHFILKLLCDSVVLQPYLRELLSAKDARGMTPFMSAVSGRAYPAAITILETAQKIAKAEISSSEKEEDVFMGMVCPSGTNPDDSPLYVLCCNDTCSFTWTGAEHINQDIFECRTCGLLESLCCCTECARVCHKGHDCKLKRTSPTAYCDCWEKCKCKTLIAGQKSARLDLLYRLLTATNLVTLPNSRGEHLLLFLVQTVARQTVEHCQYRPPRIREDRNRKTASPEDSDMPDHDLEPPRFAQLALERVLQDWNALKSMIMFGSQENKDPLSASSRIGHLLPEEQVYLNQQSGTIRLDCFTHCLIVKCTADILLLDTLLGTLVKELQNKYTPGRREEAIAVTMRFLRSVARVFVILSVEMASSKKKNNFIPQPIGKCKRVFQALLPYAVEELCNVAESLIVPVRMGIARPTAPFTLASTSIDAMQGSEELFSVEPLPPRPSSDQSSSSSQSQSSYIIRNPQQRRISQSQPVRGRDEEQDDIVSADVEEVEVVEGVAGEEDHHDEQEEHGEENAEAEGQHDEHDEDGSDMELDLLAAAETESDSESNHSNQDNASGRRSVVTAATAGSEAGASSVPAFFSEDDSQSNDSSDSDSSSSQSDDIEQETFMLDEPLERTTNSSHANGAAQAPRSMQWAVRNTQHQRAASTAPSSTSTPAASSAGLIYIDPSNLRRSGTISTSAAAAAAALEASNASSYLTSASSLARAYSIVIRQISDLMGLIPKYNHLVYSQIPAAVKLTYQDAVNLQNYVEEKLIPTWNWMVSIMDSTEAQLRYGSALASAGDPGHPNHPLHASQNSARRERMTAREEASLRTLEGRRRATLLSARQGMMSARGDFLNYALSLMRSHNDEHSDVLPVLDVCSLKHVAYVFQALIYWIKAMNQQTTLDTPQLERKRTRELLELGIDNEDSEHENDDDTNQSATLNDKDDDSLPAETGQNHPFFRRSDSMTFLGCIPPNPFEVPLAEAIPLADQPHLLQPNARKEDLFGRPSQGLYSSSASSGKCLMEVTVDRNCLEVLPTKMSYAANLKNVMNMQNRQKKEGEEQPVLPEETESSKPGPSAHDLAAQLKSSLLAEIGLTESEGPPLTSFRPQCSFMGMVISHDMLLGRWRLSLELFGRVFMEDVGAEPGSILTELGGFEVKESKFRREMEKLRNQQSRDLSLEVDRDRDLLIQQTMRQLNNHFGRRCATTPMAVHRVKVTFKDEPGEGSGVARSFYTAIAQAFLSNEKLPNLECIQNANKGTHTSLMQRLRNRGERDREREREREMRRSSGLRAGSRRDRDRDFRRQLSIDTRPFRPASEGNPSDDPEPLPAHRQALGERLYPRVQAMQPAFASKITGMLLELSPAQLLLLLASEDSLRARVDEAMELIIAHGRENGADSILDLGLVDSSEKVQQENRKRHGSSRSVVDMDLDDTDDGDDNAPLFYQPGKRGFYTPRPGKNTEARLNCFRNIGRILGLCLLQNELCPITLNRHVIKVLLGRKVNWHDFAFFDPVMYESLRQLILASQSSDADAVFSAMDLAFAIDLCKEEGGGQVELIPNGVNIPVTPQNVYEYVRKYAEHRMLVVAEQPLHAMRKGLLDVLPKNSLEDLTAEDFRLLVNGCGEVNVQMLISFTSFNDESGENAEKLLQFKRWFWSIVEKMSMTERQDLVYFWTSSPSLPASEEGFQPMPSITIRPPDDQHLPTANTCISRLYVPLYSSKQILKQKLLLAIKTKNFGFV

Biological target: Myc-tagged UBR5 (ubiquitin protein ligase E3 component N-recognin 5), wild type (UniProt O95071)
Assay: co-IP; HEK293T co-transfected, 10 uM MG132 for 6 h; lysates immunoprecipitated with anti-Flag or anti-Myc at 4 °C overnight, protein A/G agarose; 150 mM NaCl, 50 mM Tris pH 7.5, 10% glycerol; western blot

B1: Slug (protein, UniProt O43623 1-268)
chain: MPRSFLVKKHFNASKKPNYSELDTHTVIISPYLYESYSMPVIPQPEILSSGAYSPITVWTTAAPFHAQLPNGLSPLSGYSSSLGRVSPPPPSDTSSKDHSGSESPISDEEERLQSKLSDPHAIEAEKFQCNLCNKTYSTFSGLAKHKQLHCDAQSRKSFSCKYCDKEYVSLGALKMHIRTHTLPCVCKICGKAFSRPWLLQGHIRTHTGEKPFSCPHCNRAFADRSNLRAHLQTHSDVKKYQCKNCSKTFSRMSLLHKHEESGCCVAH
binding: no binding
